Results from paper PMC7819943, “Rice protein-binding microarrays: a tool to detect cis-acting elements near promoter regions in rice”.
The other results are listed elsewhere or left out.

These sequences were tested against T1, OsSMF1 (Oryza sativa, UniProt Q6ZLB0 1-436) (assay: protein-binding microarray (RPBM); PBS, 2% BSA, 51.3 ng/ul salmon testes DNA, 50 uM zinc acetate, 200 nM TF, 25 C, 1 h; high values mean tight binding). Conditions: protein: recombinant; tags: N-terminal polyhistidine and DsRed monomer fusion (pET32a); chain copies: 2; label: CyDye5-dUTP incorporated in the synthesized complementary strand; 3' TTTTT single-stranded linker to array surface; dsDNA, one strand shown.
T1 sequence: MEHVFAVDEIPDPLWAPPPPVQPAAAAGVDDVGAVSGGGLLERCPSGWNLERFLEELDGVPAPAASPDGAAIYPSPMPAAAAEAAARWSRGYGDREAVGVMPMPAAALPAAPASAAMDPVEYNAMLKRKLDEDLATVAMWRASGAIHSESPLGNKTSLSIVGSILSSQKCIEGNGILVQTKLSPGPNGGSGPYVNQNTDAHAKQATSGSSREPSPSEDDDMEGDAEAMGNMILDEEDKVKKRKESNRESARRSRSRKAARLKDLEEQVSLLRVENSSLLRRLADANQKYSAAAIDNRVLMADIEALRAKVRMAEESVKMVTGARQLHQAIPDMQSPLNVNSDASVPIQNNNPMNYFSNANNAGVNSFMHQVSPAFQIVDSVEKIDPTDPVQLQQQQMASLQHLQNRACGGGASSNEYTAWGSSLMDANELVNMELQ
Procedure, shortened: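 An Axon 4000B scanner gave the binding signal as per-feature fluorescence intensity in arbitrary units. This followed washing of a custom Agilent array that had been incubated for 1 h at 25 °C with 200 nM protein in PBS, 2% BSA, salmon testes DNA and 50 µM zinc acetate. The proteins were transcription factors fused at the N-terminus to polyhistidine and DsRed, expressed in E. coli BL21-CodonPlus and purified on Ni–NTA.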
“GTGCTAACTGCCTAGCACACGTGTTTATAGAGGTTGTCTGCGGAGTCACCTAGTGCAG” was tested, and the binding signal was 5800 fluorescence intensity (a.u.).
“TTGTTTCCGCGCAAGTTGCAGTGTCACTCACTGATCGATCCGGAGTCACCTAGTGCAG” was tested, and the binding signal was 3340 fluorescence intensity (a.u.).
For “GTGATACGTGGGAGCGGCACCACGCCCATCCGCATCACGCCGGAGTCACCTAGTGCAG”, the binding signal was 3460 fluorescence intensity (a.u.).
“GCTGGTAAAGCGGTGCGCCGGTGCCGCCACGTCCTCGCACCGGAGTCACCTAGTGCAG” was tested, and the binding signal was 15100 fluorescence intensity (a.u.).
For “AGCAGGAGAAGGGACCGAGAGAAGAGTCGCAGAGAGAGAGCGGAGTCACCTAGTGCAG”, the binding signal was 3660 fluorescence intensity (a.u.).
“CCGCATGGACGCGGTCCACGCACCTGGCGGTGCACCTCCTCGGAGTCACCTAGTGCAG” was tested, and the binding signal was 3730 fluorescence intensity (a.u.).
With “AACAGTGAGCATTGTGCGTGCGAAAACCTGACGTCTTCTGCGGAGTCACCTAGTGCAG” the binding signal was 3180 fluorescence intensity (a.u.).
For “TTGACCACTCGTCTTATTCAAATAATTTGTGCAAATATAACGGAGTCACCTAGTGCAG”, the binding signal was 17700 fluorescence intensity (a.u.).
With “AAACACACGTCCCCGACACCCACGCTGCCGCGACCTTCTTCGGAGTCACCTAGTGCAG” the binding signal was 3610 fluorescence intensity (a.u.).
“ACATAACTTAGTTGCTTAGTTAGAGTTCACCCTCACCAAGCGGAGTCACCTAGTGCAG” was tested, and the binding signal was 18200 fluorescence intensity (a.u.).
With “ACACCGTCGTGGTGTACGAGCGCCACGACGCCATGCGCGCCGGAGTCACCTAGTGCAG” the binding signal was 4980 fluorescence intensity (a.u.).
In the case of “GCCGCTGCACCGCCCCAGCCTCCTCCTCCCCACCGATGCCCGGAGTCACCTAGTGCAG”, the binding signal is reported as 3150 fluorescence intensity (a.u.).
“TGGGTATGTGATATGTGTGCGTGTGCTTGTTCCGTGTAATCGGAGTCACCTAGTGCAG” was tested, and the binding signal was 3290 fluorescence intensity (a.u.).
“AACGACGGCGAATTCTACCTCCCCGGGTATCTGGACCTCGCGGAGTCACCTAGTGCAG” was tested, and the binding signal was 42900 fluorescence intensity (a.u.).
With “GATTGAATCATATCGTATCCTTTGAAATTCCTATGGAATGCGGAGTCACCTAGTGCAG” the binding signal was 4120 fluorescence intensity (a.u.).
In the case of “AATACCATTATTATTTATGAGGATAATTGTGTACATCAGTCGGAGTCACCTAGTGCAG”, the binding signal is reported as 4360 fluorescence intensity (a.u.).
In the case of “CACTCTCTCCGGAAGGCCCAAACCGCAGCTCAACGCTTCTCGGAGTCACCTAGTGCAG”, the binding signal is reported as 25500 fluorescence intensity (a.u.).
“GCGCCGTTGTTCTTCCTGCCACATCCATCCTGGTGAGCACCGGAGTCACCTAGTGCAG” was tested, and the binding signal was 3470 fluorescence intensity (a.u.).
In the case of “GACATGAAATTAAAATCCTTAGACACATCACCGTTTGGCACGGAGTCACCTAGTGCAG”, the binding signal is reported as 6170 fluorescence intensity (a.u.).
With “TCTCAGATGTCATGCTGGTGGCTTCACCGCCACGGCCGCGCGGAGTCACCTAGTGCAG” the binding signal was 3170 fluorescence intensity (a.u.).
With “TGATTTTGTTTTAATACATGCAATCTTTCGATCCAATGGCCGGAGTCACCTAGTGCAG” the binding signal was 24000 fluorescence intensity (a.u.).
For “GGAGGGAGTAGTAGCTAGCCGCCGTCACTTCCCAGTTCACCGGAGTCACCTAGTGCAG”, the binding signal was 3420 fluorescence intensity (a.u.).
With “ATATTTGCATATTTCTGGAATAAAGCCGCAGTGTCATGCACGGAGTCACCTAGTGCAG” the binding signal was 3310 fluorescence intensity (a.u.).
“AATAAGTGCAGTTGTGGGAATCCGTGTTGAACGTTTGACCCGGAGTCACCTAGTGCAG” was tested, and the binding signal was 14300 fluorescence intensity (a.u.).
In the case of “GGTGAAGAAAGAAGTTGTGGCTGACATGTGAGTCCAATGTCGGAGTCACCTAGTGCAG”, the binding signal is reported as 3220 fluorescence intensity (a.u.).
For “GAACCGGTCGCCGTCCACCGCTGCATCCATCCGTCCATGTCGGAGTCACCTAGTGCAG”, the binding signal was 3210 fluorescence intensity (a.u.).
“GCCGCCCACCGCCTAGTCACCGCCTCCCACGATCATCCCTCGGAGTCACCTAGTGCAG” was tested, and the binding signal was 5010 fluorescence intensity (a.u.).
“ATTGCCACGTAGGCGCCACGTGGCGCCACATCAGCAAAACCGGAGTCACCTAGTGCAG” was tested, and the binding signal was 40700 fluorescence intensity (a.u.).
With “TAGGCTTAAAAGATTCATATCGCAATTTACACGCAATCTGCGGAGTCACCTAGTGCAG” the binding signal was 3530 fluorescence intensity (a.u.).
In the case of “ACCGCTGGATTATCGCGGTTATAGGGTACGTCGACGTGGTCGGAGTCACCTAGTGCAG”, the binding signal is reported as 4360 fluorescence intensity (a.u.).
For “TCAACCGTGAAGCCTTCTCCACTCCACTGATCCACTCCATCGGAGTCACCTAGTGCAG”, the binding signal was 20700 fluorescence intensity (a.u.).
With “TGCTTTCCGTCCACGTATTCATCGGGCTGCTTCTCCTCTCCGGAGTCACCTAGTGCAG” the binding signal was 11900 fluorescence intensity (a.u.).
“GGCGCTCCCATCGTACTGCGTGGCTGCTGCCAGATCCAGGCGGAGTCACCTAGTGCAG” was tested, and the binding signal was 3790 fluorescence intensity (a.u.).
In the case of “CTTCAGTCCTCGGCCCATTCTCCCTTCCTTTCAGCTGGCTCGGAGTCACCTAGTGCAG”, the binding signal is reported as 45600 fluorescence intensity (a.u.).
In the case of “AGCAAAATCTACGCGATGACGCCACGTGACATGACATCGCCGGAGTCACCTAGTGCAG”, the binding signal is reported as 5840 fluorescence intensity (a.u.).
“TATTTTGTACTTCTTGAAAATGTTCCTTTCTTTTCTGTCACGGAGTCACCTAGTGCAG” was tested, and the binding signal was 3520 fluorescence intensity (a.u.).
In the case of “ACTAATGACGCTAAAAGGAAGGGATAAAACAACTTAACAACGGAGTCACCTAGTGCAG”, the binding signal is reported as 22300 fluorescence intensity (a.u.).
For “GCTCTCTTTCCGCTTCTACCCTCGTCACGTCCACGAAATCCGGAGTCACCTAGTGCAG”, the binding signal was 5040 fluorescence intensity (a.u.).
In the case of “AGAGAGAGGACGACATGTGGGTCCCACATGTCAGTGGGGCCGGAGTCACCTAGTGCAG”, the binding signal is reported as 3280 fluorescence intensity (a.u.).
For “GATGCTATGCTATGCTATGTGAGACTACATGTTAGTATATCGGAGTCACCTAGTGCAG”, the binding signal was 3420 fluorescence intensity (a.u.).
In the case of “ATATATGAGAATTTCCACGTCAAAATGGTGGAAACCTACGCGGAGTCACCTAGTGCAG”, the binding signal is reported as 4620 fluorescence intensity (a.u.).
“GCCTCGCGGACTCAGCCAGTCCACGCCATCGGCGGCGAGTCGGAGTCACCTAGTGCAG” was tested, and the binding signal was 5200 fluorescence intensity (a.u.).
For “CGCTGAGCTGTCGCCATCGACCCGGAGTCCCTCCCGCACCCGGAGTCACCTAGTGCAG”, the binding signal was 4570 fluorescence intensity (a.u.).
With “TAGCAGCCAATTAGTCCACTTAATCACCCATGGATCGCGACGGAGTCACCTAGTGCAG” the binding signal was 3490 fluorescence intensity (a.u.).
With “ATTAATAGCAGTGACGTCTTGCACATACTGTATGAGTCATCGGAGTCACCTAGTGCAG” the binding signal was 11000 fluorescence intensity (a.u.).
“TTTGATGCTGATTATAGGAAAATGTAAATGTTTCTATATACGGAGTCACCTAGTGCAG” was tested, and the binding signal was 39500 fluorescence intensity (a.u.).
In the case of “CACTAACGCTCACACACACTAGGCTCCAACACCAACCCAACGGAGTCACCTAGTGCAG”, the binding signal is reported as 3450 fluorescence intensity (a.u.).
With “AGGCAGAACAGCCATGGCTGAGCTCGATCTCGAGCTCACCCGGAGTCACCTAGTGCAG” the binding signal was 7160 fluorescence intensity (a.u.).
With “CCACCCATCCGGCCGTAACCCGCTGTCCACCATAATCCTGCGGAGTCACCTAGTGCAG” the binding signal was 3830 fluorescence intensity (a.u.).
“GCACTGAATGCGGTCGTATTGGCTTTGTATTTTGGTGTTGCGGAGTCACCTAGTGCAG” was tested, and the binding signal was 3260 fluorescence intensity (a.u.).
“TCGCTGCCCTCCCGCCCGTTGGCCGAAGGGGAAGAAGGGGCGGAGTCACCTAGTGCAG” was tested, and the binding signal was 36900 fluorescence intensity (a.u.).
In the case of “ACGCCACGCGCCACCGGCGATCTCGTCCGTCCACGTCCCACGGAGTCACCTAGTGCAG”, the binding signal is reported as 5670 fluorescence intensity (a.u.).
For “CGTTATTATTGTCTTTCGCATGATCGTATCCGCACGTATGCGGAGTCACCTAGTGCAG”, the binding signal was 3490 fluorescence intensity (a.u.).
“TCGAAAGGAACAGGGACCCTGTCAGCAGGTGGCTGATCCTCGGAGTCACCTAGTGCAG” was tested, and the binding signal was 4100 fluorescence intensity (a.u.).
